# According to the supplement of paper PMC11150407:
# The whole screen tested about 3,000 compounds, of which about 45 (2%) showed an effect of 50% or more. This is one part of the list.
# Tested on: MOLM1 and UCSD/AML1 (averaged)
# Test: cell viability relative to DMSO control (POC); higher = less growth inhibition
# Details: 1 µM; 72 h
# Protocol: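 Primary viability screen in the 3q26 EVI1-high AML cell lines MOLM1 and UCSD/AML1, compounds at 1 uM for 72 h. ATP CellTiter-Glo read-out given as percent viable over DMSO control (POC), averaged over duplicates. This mapping covers the TimTec NDL-3000 natural derivative library, whose compounds are identified by TimTec catalogue codes (ST...).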
row,Structure (SMILES),cell viability
1,COc1ccc2c(c1)c(CC(=O)OCc1ccccc1F)c(C)n2C(=O)c1ccc(Cl)cc1,104%
2,Cc1ccc2oc(C(Cl)(Cl)Cl)cc(=O)c2c1,26.6%
3,COc1ccc(OCC(=O)NC(Cc2c[nH]c3ccccc23)C(=O)O)cc1 (stereo unspecified),93.4%
4,COc1cc(OC)c(C(=O)N2CCCCC2)cc1OC,109%
5,CC(C)(C)c1nnc(NC(=O)c2ccc3c(c2)OCO3)s1,98%
6,COc1cc(C(=O)CCNc2cccc(Cl)c2)cc(OC)c1OC,90.7%
7,COc1cc(C2C3=C(CC(C)(C)CC3=O)N(c3ccccc3)C3=C2C(=O)CC(C)(C)C3)ccc1O,97.8%
8,CCCCOc1ccc(C2=NOC(=O)/C2=C\c2ccccc2)cc1,103%
9,CCOc1ccccc1-c1nc(CSc2nc3c(=O)[nH]cnc3n2C)c(C)o1,110%
10,COc1ccc(C(=O)/C=C2\C(=O)Nc3ccccc32)cc1OC,52.3%
11,COc1cccc(-c2cc(=O)c3c(OC)cccc3o2)c1,64%
12,CCOC(=O)C1=C(C)NC2=C(C(=O)CC(c3ccc(Cl)cc3)C2)C1c1cc(OC)c(OC)c(OC)c1 (stereo unspecified),100%
13,CC1Nc2nc3ccccc3n2C(c2cccc(F)c2)=C1C(=O)c1ccccc1 (stereo unspecified),105%
14,COc1ccc(C(=O)Nc2ccc3c(c2)NC(=O)C(C)O3)cc1OC (stereo unspecified),95.8%
15,COc1ccc(NC(=O)CSc2nc3c(=O)[nH]cnc3n2-c2ccc(C)cc2)cc1,102%
16,CC(=O)c1ccc2c(c1)OCCCO2,93.7%
17,O=c1c(O)c(-c2ccc(F)cc2)oc2cc(Cl)ccc12,100%
18,CCC1(C)CC(CC(=O)O)(c2ccc(OC)cc2)CCO1 (stereo unspecified),97.5%
19,COc1ccc(-c2cn3c4c(=O)n(C)c(=O)n(C)c4nc3n2-c2ccc(O)cc2)cc1,101%
20,Cc1cc(Oc2ccc3ccccc3c2)nc(SCC(=O)c2ccccc2)n1,97.3%
21,Cn1c(SCc2ccc(F)cc2Cl)nc2c(=O)[nH]cnc21,89%
22,N#CC1=C(N)Oc2oc3cc(Cl)ccc3c(=O)c2C1c1ccccc1 (stereo unspecified),105%
23,Cc1ccc(NC(=O)CSc2nc3c(=O)[nH]cnc3n2-c2ccc(C)cc2)cc1,111%
24,CCOc1cc(C2C(C(=O)OC)=C(C)NC3=C2C(=O)CC(c2ccc(Cl)cc2)C3)cc(Br)c1O (stereo unspecified),99.6%
25,C/C(Cl)=C/Cn1c(N/N=C(/C)c2ccc(Cl)cc2)nc2c1c(=O)[nH]c(=O)n2C,103%
26,CCCNC(=O)c1cc(=O)n(CC(=O)Nc2cc(C)ccc2C)c2ccccc12,94.8%

row,Structure (SMILES),cell viability
1,COc1cc(C2C3CCCCC3(O)CCN2CC(=O)Nc2cc(C)ccc2C)cc(OC)c1OC (stereo unspecified),96.7%
2,COc1ccc2c(c1)c(CC(=O)Nc1ccc(Cl)cn1)c(C)n2C(=O)c1ccc(Cl)cc1,87.1%
3,COc1cc(OC)cc(C(=O)NCc2cccs2)c1,97.9%
4,CCOC(=O)C1=C(N)Oc2c(oc(CO)cc2=O)C1c1cccnc1 (stereo unspecified),105%
5,Cc1ccc(C)c(S(=O)(=O)NC(Cc2c[nH]c3ccccc23)C(=O)O)c1 (stereo unspecified),102%
6,Cc1ccc(C(=O)NCCc2c(C)[nH]c3ccc(C)cc23)cc1,100%
7,CCN(CC)C(=O)c1cc(=O)n(CC(=O)Nc2c(C)cc(C)cc2C)c2ccccc12,92.9%
8,Nc1[nH]c(=O)ncc1F,98.4%
9,COc1cc(NC(=O)CSc2nc3c(=O)[nH]cnc3n2C)cc(OC)c1,93.1%
10,COc1c(I)cc(Oc2c(I)cc(CC(N)C(=O)O)cc2I)cc1I (stereo unspecified),89.7%
11,COCC(=O)OCC1CCC[N+]2(C)CCCCC12 (stereo unspecified),95.7%
12,CCc1ccc(NCCC(=O)c2ccc3c(c2)OCO3)cc1,98.9%
13,O=C(/C=C/c1ccccc1)c1ccc(O)cc1,2.68%
14,O=C(CSc1nc2ccccc2c(=O)[nH]1)c1ccccc1,97%
15,COc1cc(C(=O)Nc2nc(-c3ccc4c(c3)OCCO4)cs2)cc(OC)c1OC,107%
16,Nc1nc2ncc(CNc3ccc(C(=O)N[C@H](CCC(=O)O)C(=O)O)cc3)nc2c(=O)[nH]1,102%
17,CC1(C)CC(=O)C2=C(C1)Nc1ccccc1NC2c1ccc(OCc2cccc(Cl)c2)cc1 (stereo unspecified),103%
18,Cc1cc2c(C(C)C)c(O)c(O)c(C=NCCOc3ccc4oc5ccccc5c4c3)c2c(O)c1-c1c(C)cc2c(C(C)C)c(O)c(O)c(C=NCCOc3ccc4oc5ccccc5c4c3)c2c1O,99.7%
19,CC(=O)OC1C(OC(=O)c2ccc(C)cc2)C(COC(=O)c2ccc(C)cc2)OC1n1cc(I)c(=O)[nH]c1=O (stereo unspecified),105%
20,Cc1ccc(-c2cc(=O)c3ccccc3o2)cc1,92.3%
21,CCc1c(O)c2ccccc2n(Cc2ccccc2)c1=O,97.6%
22,COc1ccc(C(=O)N2CCN(Cc3cc(=O)oc4cc(C)ccc34)CC2)c(OC)c1,93%
23,O=C(Cn1c(=O)cc(C(=O)NCc2ccccc2)c2ccccc21)Nc1cccc(F)c1,102%
24,CCOc1cc(C2C(C(=O)OCCOC(C)C)=C(C)NC3=C2C(=O)CC(c2ccc(OC)c(OC)c2)C3)ccc1O (stereo unspecified),108%
25,CN(C(=O)CSc1nc(N)cc(=O)[nH]1)c1ccccc1,106%
